## Percent effect of library compounds

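Whole-cell growth test on Mycobacterium tuberculosis, read after 4 days in a medium based on cholesterol and the lipid DPPC; the read-out is not stated. Tested at 50 µM. Direction is inferred from retests: higher values go with more growth inhibition. Of about 69,000 compounds tested this way, about 370 (0.54%) reached 50% or more in at least one test.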

Values are the deposited “Percent Effect”, in %.
The record does not define 0% and 100%; most values in the screen are far below 50% and negative numbers occur (in some assays of this library far below -100).
Compounds were drawn at random from those tested, without regard to their results.
Two or more numbers in one place are separate tests of the same structure; such repeats can differ widely.

structure,effect
CC(C)n1c(C2CCCN(CCS(C)(=O)=O)C2)nc2ccccc21 (centres unmarked),19.26% and -2.427%
[H][C@@]12CN(CC3CCOC3)C[C@]1([H])OCCN2c1ncc(F)cn1 (some centres unmarked),-14.29%
Cc1noc(C)c1S(=O)(=O)N1CCC(Oc2ccccn2)CC1,-2.115%
Cc1cccc(OC2CCN(C(=O)NCCn3ccnc3)CC2)c1C,-18.26%
Cc1nc(-c2ccccc2)sc1CSC(C)C(N)=O (centres unmarked),0.1239%
c1csc(-c2noc(COCC3CCCO3)n2)c1 (centres unmarked),8.348%
CNc1nc(CNC(=O)Nc2ccc(SC)c(F)c2)cs1,7.945%
c1cc(CN2CCOC(Cn3cccn3)C2)c2c(c1)OCCO2 (centres unmarked),8.625%
Cc1ccc(C(=O)N(CC2CCCO2)c2ccncc2)o1 (centres unmarked),-4.728%
O=C(O)C(F)(F)F.[H][C@@]12COC[C@@H](CC(=O)N3CCOCC3)[C@]1([H])CN(Cc1ccc(F)cc1)C2,-33.26%
CC(C)NC(=O)N1CCC2(CC1)C(=O)NCCN2Cc1ccccc1.O=C(O)C(F)(F)F,2.859%
Cc1nc(C2CCCN2C(=O)Cn2cncn2)no1 (centres unmarked),-7.003%
O=C(O)C(F)(F)F.[H][C@@]12COC[C@]1([H])[C@@H](OCC(=O)N(C)C)CN2Cc1c(C)noc1C,-3.936%
CC(C)[C@@H]1CN(C(=O)c2ccc3c(c2)CCCO3)C[C@H]1NS(C)(=O)=O,3.104%
CCN(CC)C(=O)CCCNC(=O)Cc1nc(-c2ccco2)oc1C,-6.049%
[H][C@@]12CCCN1C[C@@H](Cc1ccccc1)N(Cc1cnn(CCC)c1C)C2,-6.672%
Cc1cc(N2CCCN(C(=O)Cc3cccnc3)CC2)ccn1,3.639%
Cn1cc(S(=O)(=O)NCc2ccc(F)cc2)cn1,6.647%
CCCC(=O)N(CCCN1CCOCC1)c1nc2c(C)c(C)ccc2s1.Cl,22.41%
CN(C)CCOCc1nnc2n1CCN(CC1CC1)CC2.O=C(O)C(F)(F)F.O=C(O)C(F)(F)F,-14.81%
CCc1[nH]c2c(CNC(=O)[C@@H]3CCCN3C)cc(C)cc2c1C,-6.745%
CC(C)c1ncc2c(n1)CN(Cc1nc(-c3cccs3)no1)CC2,-24.56%
Cc1nc(NC(C)C)nc2c1CN(Cc1cccs1)CC2,-0.3173%
CC(C)(N)C(=O)N1CCCC(C(=O)c2ccc(C(C)(C)C)cc2)C1 (centres unmarked),23.78%
CN1CC[C@H](N(C)Cc2ccccc2)C[C@H](O)C1,-7.14%
CCO[C@@H]1CO[C@@]2(CCCN(S(=O)(=O)c3ccccc3)C2)C1,-11.47%
Cc1cc(=O)c(C(=O)N(C)Cc2ccc(Cl)c(F)c2)c[nH]1,18.84%
CC(C)COc1cncc(NCc2nnc3ccccn23)n1,1.361% and -4.962%
CCOc1cccc(CNC(=O)C(C)(C)C#N)c1OC(F)F,5.406%
O=C(NCCCn1cncn1)NCC(c1ccccc1)N1CCCC1 (centres unmarked),28.52%
CCCS(=O)(=O)N1CCC(NC(=O)c2cc(CC)c(C)s2)CC1,4.29% and 7.856%
CC(C)Nc1nc(N2CCOCC2)nc2c1CN(Cc1ccoc1)CC2,-19.56%
O=C(c1cc(F)ccc1O)N1CCN(C(=O)C2CCC2)CC1,-28.47%
CCn1ccnc1CN(C)Cc1nc(Cc2cccc(F)c2)no1,-3.052%
CCOc1ncccc1NC(=O)N1CCCC1c1cc(C)no1 (centres unmarked),18.72%
CO[C@H]1CN(C(=O)OC(C)(C)C)CC1NCc1cc[nH]c1 (some centres unmarked),-7.905%
CC(Oc1ccc2c(c1)OCO2)C(=O)Nc1ccon1 (centres unmarked),-17.15%
O=C(O)C(F)(F)F.O=C(O)C(F)(F)F.[H][C@]12CCN(C(=O)CCC)CC[C@@]1([H])S(=O)(=O)CCN2Cc1cccnc1,-2.625% and 14.86%
COCC1CN(S(=O)(=O)c2ccc(C)cc2)Cc2c1cnn2C.O=C(O)C(F)(F)F (centres unmarked),2.8%
CCN(CC)C(=O)c1nnsc1-c1ccccc1,-19.4%
CC1CCCCN1c1nc2c(c(=O)[nH]1)CCN(Cc1ccccc1O)C2 (centres unmarked),1.269%
COc1ccc(C)cc1C(=O)N1C[C@@H](CN(C)CCO)[C@@H](CO)C1,-5.691% and -6.176%
O=C(O)C(F)(F)F.O=C(O)c1cc2c(nc1-c1ccsc1)CCN(C(=O)C1CC1)CC2,10.83%
Cc1noc(NCc2ccc(F)cc2F)n1,-20.59%
CNc1nc(C)c(C(=O)N2C[C@@H](C(=O)O)[C@H](C3CC3)C2)s1,11.16%
Cn1ncc2c(=O)[nH]c(CN(Cc3ccco3)C3CC3)nc21,9.554%
COCCn1cc(C(=O)N2CCCC2c2ccc(F)cc2)ccc1=O (centres unmarked),-16.69% and 6.638%
CCNC(=O)C1CCCN(C(=O)Nc2ccc3c(c2)CCCN3C)C1 (centres unmarked),11.56%
CC(C)N(C(=O)Cn1nnnc1CCc1ccccc1)C(C)C,-42.4% and 10.36%
Cc1nc(C)c(C(=O)Nc2ccc(-c3nnc(N(C)C)o3)cc2)o1,7.003%
[H][C@]12CN(S(=O)(=O)c3ccc(C(=O)NC[C@H]4CCCO4)cc3)[C@]([H])(CN1)C2,-20.65%
CNc1ncc(CN2CCC(c3nnsc3S(C)(=O)=O)CC2)cn1,7.068%
CC(NC(=O)Nc1nnc(-c2ccccn2)s1)C(=O)OC(C)(C)C (centres unmarked),-9.929%
COc1cccc(CC(=O)N2CCN(c3cccc(C)c3)C(C)C2)c1 (centres unmarked),-7.155%
OC(c1ccccn1)C1CCN(Cc2cc3n(n2)CCCNC3)CC1 (centres unmarked),-24.85%
CCS(=O)(=O)c1ccc(N2CCC(NC(=O)c3cnn(C)c3)CC2)cc1,25.54%
N#Cc1ccccc1CN1CCC2(CC1)CC(c1ccccc1)C(=O)N2 (centres unmarked),-5.125%
CCn1ccnc1CN1CCOC(Cn2cccn2)C1 (centres unmarked),-34.77%
Cc1ccc(S(=O)(=O)N(C)CC(N)=O)c(Cl)c1,6.351% and -7.062%
COC(=O)NCC(=O)N1CCCn2nc(CN3CC[C@H](F)C3)cc2C1,4.63%
CC1(C)Cc2c(cnn2-c2ccccc2)C(NC2CCSCC2)C1 (centres unmarked),0.1633%
Cc1nn(C)c2nc(NCCCN3CCCC(CO)C3)sc12 (centres unmarked),-8.298%
c1cnc(N2CCCC(c3csc(Nc4cnccn4)n3)C2)nc1 (centres unmarked),-1.229% and 11.61%
O=C(O)C(F)(F)F.[H][C@@]12COC[C@]1(COc1cccnc1)CN(C(=O)c1ccc(F)cc1)C2,9.813%
CC(=O)N1CCC2(CCCN(S(=O)(=O)c3ccc(F)cc3)C2)C1 (centres unmarked),7.371%
CC(C)c1ncc(Cl)c(C(=O)N2CCCN3CCCC3C2)n1 (centres unmarked),2.046%
Cc1ccc(F)cc1S(=O)(=O)N(C)CC(N)=O,-33.18%
Cc1cc(C(=O)N(C)Cc2cnn(C)c2C)n(C)n1,-2.105%
CCn1cnnc1C1CCN(C(=O)c2cc(F)ccc2OC)CC1,-12.26%
O=C(Cc1cccc(F)c1)NCCNc1ncccn1,4.663%
Cc1cc(C)n(CC2CN(Cc3nc(-c4ccco4)no3)CCO2)n1 (centres unmarked),-7.1%
CCc1nc(CN2CCCC(NCc3nnc(C4CC4)n3C)C2)no1 (centres unmarked),-0.4803%
O=C(NCc1ccc(Br)cc1)NCC1CCOC1 (centres unmarked),-0.9158%
Cc1cnn(CC2CCCN2C(=O)c2csc(-c3nnc[nH]3)n2)c1 (centres unmarked),-0.6323%
O=C1CN(CCCNC(=O)Nc2ccccn2)CCN1,-6.057% and -0.102%
CSc1cc2c(cc1NC(=O)NCc1ccco1)OCCO2,-14.9%
COc1ccccc1Oc1ncccc1CNC(=O)C(C)N1CCCC1 (centres unmarked),4.752%
COCc1cc(N2CCc3onc(-c4cccc(OC)c4)c3C2)ncn1,-13.78%
CN1CCC(N(C)CCC(=O)N2CCC(CCc3ccccc3)CC2)C1 (centres unmarked),15.64%
CNCC[C@H]1CC(C)(C)Oc2ccc(OC)cc21,-20.47%
Cc1nc(C)n(CC2CCCCN2CC(=O)Nc2cc(C)on2)n1 (centres unmarked),6.479%
CC(CCNC(=O)NCCc1ccc(S(N)(=O)=O)cc1)c1ccccc1 (centres unmarked),4.902% and -9.521%
Cc1cc(-n2cncn2)n2ncnc2n1,3.098%
O=C(NCc1ccnc(O)c1)NCC1CCCC1,37.99%
Cc1ccc(CN2CC(C(=O)NCC3CC3)C3(CCOCC3)C2)s1.O=C(O)C(F)(F)F (centres unmarked),2.425%
NC(=O)COc1cccc(C(=O)N2CCCC(n3cccn3)C2)c1 (centres unmarked),27.59%
COCCN1CCC(CNC(=O)C2(c3ccc(Br)cc3)CCCC2)C1 (centres unmarked),1.789%
CCOCCNC(=O)c1cccnc1Sc1cc(OC)ccc1OC,-10.21%

The last 9 entries again:

- CNCC[C@H]1CC(C)(C)Oc2ccc(OC)cc21 : -20.47%
- Cc1nc(C)n(CC2CCCCN2CC(=O)Nc2cc(C)on2)n1 (centres unmarked) : 6.479%
- CC(CCNC(=O)NCCc1ccc(S(N)(=O)=O)cc1)c1ccccc1 (centres unmarked) : 4.902% and -9.521%
- Cc1cc(-n2cncn2)n2ncnc2n1 : 3.098%
- O=C(NCc1ccnc(O)c1)NCC1CCCC1 : 37.99%
- Cc1ccc(CN2CC(C(=O)NCC3CC3)C3(CCOCC3)C2)s1.O=C(O)C(F)(F)F (centres unmarked) : 2.425%
- NC(=O)COc1cccc(C(=O)N2CCCC(n3cccn3)C2)c1 (centres unmarked) : 27.59%
- COCCN1CCC(CNC(=O)C2(c3ccc(Br)cc3)CCCC2)C1 (centres unmarked) : 1.789%
- CCOCCNC(=O)c1cccnc1Sc1cc(OC)ccc1OC : -10.21%

From ChEMBL document CHEMBL3988442, “University of Dundee, Small-Polar-MMV Screening Library” (2021).